# From PubChem BioAssay AID248 (DTP/NCI, 2004)
# The list is a part of this screen's results and no random one: it gathers tests that were run many times, whatever their T/C, doses with no T/C, and many T/C values between a quarter and a half above the control. Further doses and runs are listed elsewhere. T/C is the treated group as % of the vehicle group. Some doses have a count of surviving animals in place of a T/C: the source holds a T/C of zero for them, seemingly a mark for toxic or unscored doses. Some survivor counts are full or nearly so, which does not show that the dose was tolerated: the source hardly ever lists a survival T/C far under the control, and the zero likely stands for such cases as well. Counts of survivors are from the toxicity check (mostly the fifth day) where no day follows; animals may have died later. Schedule codes are those of the source, taken here to give the interval after Q, in days (D) or hours (H), and the number of doses after X. Some schedules carry Z or #; the key to these is not given. Some entries were tested several times; their values stand side by side, smallest first. For survival time, the PubChem record calls one and a half times the control and up active, and a quarter to a half above the control has no call in these data; cut-offs in other NCI protocols can differ. Some T/C values carry the count of animals alive at the toxicity check (mostly the fifth day); without a count, all were alive then.
# Test system: L1210 leukemia ip in BDF1 mice, survival T/C
# Test: NCI In Vivo Anticancer Drug Screen. Data for tumor model L1210 Leukemia (intraperitoneal) in B6D2F1 (BDF1) mice
# Details: T/C endpoint: mean survival time, higher T/C = longer survival
# [1] = dose: 10.0 mg/kg/injection, schedule: Q01DX009 (ip), vehicle: saline
# [2] = dose: 50.0 mg/kg/injection, schedule: Q01DX009 (ip), vehicle: saline
# [3] = dose: 100.0 mg/kg/injection, schedule: Q01DX009 (ip), vehicle: Klucel (hydroxypropylcellulose) (HPC)
# [4] = dose: 400.0 mg/kg/injection, schedule: Q04DX003 (ip), vehicle: saline with Tween-80
# [5] = dose: 400.0 mg/kg/injection, schedule: Q01DX009 (ip), vehicle: saline with Tween-80
# [6] = dose: 200.0 mg/kg/injection, schedule: Q04DX002 (ip), vehicle: Klucel (hydroxypropylcellulose) (HPC)
# [7] = dose: 400.0 mg/kg/injection, schedule: Q04DX002 (ip), vehicle: Klucel (hydroxypropylcellulose) (HPC)
smiles,measurement,setting,value
CCOC1=C(N2CC2)C(=O)C(OCC)=C(N2CC2)C1=O,T/C,"dose: 0.63 mg/kg/injection, schedule: Q01DX Z (ip), vehicle: methylcellulose (MC)",126 % of control
same,T/C,"dose: 1.1 mg/kg/injection, schedule: Q01DX Z (ip), vehicle: saline",135 % of control
same,T/C,"dose: 1.25 mg/kg/injection, schedule: Q01DX Z (ip), vehicle: methylcellulose (MC)",136 % of control
same,T/C,"dose: 1.7 mg/kg/injection, schedule: Q01DX Z (ip), vehicle: saline",144 % of control
same,T/C,"dose: 2.0 mg/kg/injection, schedule: Q01DX Z (ip), vehicle: saline",145 % of control
same,T/C,"dose: 2.5 mg/kg/injection, schedule: Q01DX009 (ip), vehicle: saline",149 % of control
same,T/C,"dose: 2.5 mg/kg/injection, schedule: Q01DX Z (ip), vehicle: methylcellulose (MC)",147 % of control [5 of 6 alive]
same,T/C,"dose: 5.0 mg/kg/injection, schedule: Q01DX009 (ip), vehicle: saline",137 % of control
same,survivor count,"dose: 8.0 mg/kg/injection, schedule: Q01DX Z (ip), vehicle: saline",4 of 6
same,survivor count,[1],6 of 6
same,survivor count,"dose: 10.0 mg/kg/injection, schedule: Q01DX Z (ip), vehicle: carboxymethylcellulose (CMC)",3 of 6
same,survivor count,"dose: 20.0 mg/kg/injection, schedule: Q01DX001 (ip), vehicle: saline",2 of 6
same,survivor count,"dose: 20.0 mg/kg/injection, schedule: Q01DX009 (ip), vehicle: saline",5 of 6
same,survivor count,"dose: 20.0 mg/kg/injection, schedule: Q01DX Z (ip), vehicle: carboxymethylcellulose (CMC)",0 of 6
same,survivor count,"dose: 40.0 mg/kg/injection, schedule: Q01DX001 (ip), vehicle: saline",1 of 6
same,survivor count,"dose: 75.0 mg/kg/injection, schedule: Q01DX001 (ip), vehicle: saline",1 of 6
same,survivor count,"dose: 150.0 mg/kg/injection, schedule: Q01DX001 (ip), vehicle: saline",0 of 6
same,survivor count,"dose: 300.0 mg/kg/injection, schedule: Q01DX001 (ip), vehicle: saline",0 of 6
Cc1ncc(CO)c(/C=N\OCc2cccc(Cl)c2)c1O,survivor count,[2],0 of 3
C(=C\c1nc2ccccc2nc1/C=C/c1ccc2c(c1)OCO2)/c1ccc2c(c1)OCO2,survivor count,[3],6 of 6
same,survivor count,"dose: 200.0 mg/kg/injection, schedule: Q01DX009 (ip), vehicle: Klucel (hydroxypropylcellulose) (HPC)",6 of 6
CCCCCCC(C(C(C)=O)C(C)=O)C(C(C)=O)C(C)=O,survivor count,[4],6 of 6
C[As](C)[Se]C1OC(CO)C(O)C(O)C1O (centres undefined),survivor count,"dose: 100.0 mg/kg/injection, schedule: Q04DX003 (ip), vehicle: saline with Tween-80",6 of 6
same,survivor count,"dose: 200.0 mg/kg/injection, schedule: Q04DX003 (ip), vehicle: saline with Tween-80",1 of 6
same,survivor count,[4],0 of 6
Cn1c(CCCC(=O)O)nc2cc(N(CCCl)CCCl)ccc21,T/C,"dose: 10.0 mg/kg/injection, schedule: Q01DX009 (ip), vehicle: Klucel (hydroxypropylcellulose) (HPC)",125 and 137 % of control
same,T/C,"dose: 15.0 mg/kg/injection, schedule: Q01DX009 (ip), vehicle: Klucel (hydroxypropylcellulose) (HPC)",125 % of control
same,T/C,"dose: 20.0 mg/kg/injection, schedule: Q01DX009 (ip), vehicle: other",134 % of control
same,T/C,"dose: 20.0 mg/kg/injection, schedule: Q04DX003 (ip), vehicle: other",128 % of control
same,T/C,"dose: 40.0 mg/kg/injection, schedule: Q01DX001 (ip), vehicle: other",135 % of control
same,survivor count,"dose: 40.0 mg/kg/injection, schedule: Q01DX009 (ip), vehicle: acetone",5 of 6
same,T/C,"dose: 40.0 mg/kg/injection, schedule: Q04DX003 (ip), vehicle: Klucel (hydroxypropylcellulose) (HPC)",127 % of control
same,T/C,"dose: 40.0 mg/kg/injection, schedule: Q04DX003 (ip), vehicle: other",143 % of control
same,T/C,"dose: 50.0 mg/kg/injection, schedule: Q01DX001 (ip), vehicle: saline",134 % of control
same,survivor count,"dose: 50.0 mg/kg/injection, schedule: Q01DX009 (ip), vehicle: Klucel (hydroxypropylcellulose) (HPC)",0 of 6
same,survivor count,"dose: 60.0 mg/kg/injection, schedule: Q04DX003 (ip), vehicle: saline",5 of 6
same,survivor count,"dose: 75.0 mg/kg/injection, schedule: Q01DX009 (ip), vehicle: Klucel (hydroxypropylcellulose) (HPC)",0 of 6
same,survivor count,"dose: 80.0 mg/kg/injection, schedule: Q01DX009 (ip), vehicle: other",5 of 6
same,survivor count,"dose: 100.0 mg/kg/injection, schedule: Q01DX001 (ip), vehicle: carboxymethylcellulose (CMC)",2 of 6
same,survivor count,"dose: 100.0 mg/kg/injection, schedule: Q01DX001 (ip), vehicle: saline",6 of 6
same,survivor count,"dose: 160.0 mg/kg/injection, schedule: Q01DX009 (ip), vehicle: other",0 of 6
same,survivor count,"dose: 160.0 mg/kg/injection, schedule: Q04DX003 (ip), vehicle: other",1 of 6 and 3 of 6
same,survivor count,"dose: 200.0 mg/kg/injection, schedule: Q01DX001 (ip), vehicle: carboxymethylcellulose (CMC)",0 of 6
same,survivor count,"dose: 200.0 mg/kg/injection, schedule: Q01DX001 (ip), vehicle: saline",5 of 6
same,survivor count,"dose: 320.0 mg/kg/injection, schedule: Q04DX003 (ip), vehicle: other",0 of 6
same,survivor count,"dose: 400.0 mg/kg/injection, schedule: Q01DX001 (ip), vehicle: carboxymethylcellulose (CMC)",0 of 6
same,survivor count,"dose: 400.0 mg/kg/injection, schedule: Q01DX001 (ip), vehicle: saline",0 of 6
NCCCNc1ccccc1,survivor count,"dose: 400.0 mg/kg/injection, schedule: Q01DX009 (ip), vehicle: saline",0 of 6
CCO/C(C)=C(/C#N)c1ccc(Cl)cc1,survivor count,"dose: 100.0 mg/kg/injection, schedule: Q01DX009 (ip), vehicle: gum acacia",0 of 6
same,survivor count,"dose: 200.0 mg/kg/injection, schedule: Q01DX009 (ip), vehicle: gum acacia",0 of 6
same,survivor count,"dose: 400.0 mg/kg/injection, schedule: Q01DX009 (ip), vehicle: gum acacia",0 of 6
CC(=O)NCC[N+](C)(C)C,survivor count,"dose: 200.0 mg/kg/injection, schedule: Q04DX003 (ip), vehicle: saline",6 of 6
same,survivor count,"dose: 400.0 mg/kg/injection, schedule: Q04DX003 (ip), vehicle: saline",0 of 6
CC1SC(=S)N(c2ccccc2)C1=O (centres undefined),survivor count,[5],3 of 6
CCCCNC(=S)NC1CC(O[C@H]2C[C@](O)(C(C)=O)Cc3c(O)c4c(c(O)c32)C(=O)c2c(OC)cccc2C4=O)OC(C)C1O (some centres undefined),survivor count,"dose: 200.0 mg/kg/injection, schedule: Q01DX009 (ip), vehicle: saline with Tween-80",6 of 6
same,survivor count,[5],5 of 6
COc1ccc2c(C)[n+]3ccc4cc(OC)c(OC)cc4c3cc2c1 (tested in a mixture with another compound),T/C,[1],127 % of control [9 of 10 alive]
same,T/C,"dose: 30.0 mg/kg/injection, schedule: Q01DX009 (ip), vehicle: saline",129 % of control
same,T/C,[2],128 % of control [5 of 6 alive]
same,T/C,"dose: 80.0 mg/kg/injection, schedule: Q01DX009 (ip), vehicle: saline",130 % of control
Cc1nccn1CC(=O)c1ccccc1,survivor count,"dose: 25.0 mg/kg/injection, schedule: Q01DX009 (ip), vehicle: Klucel (hydroxypropylcellulose) (HPC)",6 of 6
same,survivor count,[6],1 of 3
same,survivor count,[7],0 of 3 and 0 of 6
CCCCCCP(=O)(CCCCCC)CCCCCC (tested in a mixture with another compound),survivor count,[5],0 of 6
CN(C)C(=S)N1CC2C3CCC(O3)C2C1 (centres undefined),survivor count,"dose: 400.0 mg/kg/injection, schedule: Q04DX003 (ip), vehicle: Klucel (hydroxypropylcellulose) (HPC)",0 of 6
O=C(O)/C=C/S(=O)(=O)c1ccc(Cl)cc1,survivor count,[3],0 of 3
same,survivor count,[6],1 of 3
same,survivor count,[7],0 of 3
CN=C(NC)c1ccc(NC(=O)/C=C/C(=O)Nc2ccc(C(=NC)NC)cc2)cc1,survivor count,"dose: 100.0 mg/kg/injection, schedule: Q01DX Z (ip), vehicle: carboxymethylcellulose (CMC)",2 of 6
